# Assay results as given in the supplement of paper PMC10849652.
# Protein sequences, listed by entry. Tags and fused reporters are not part of them. Lines headed by an entry give the natural chain unless they say otherwise; changes in a name come on top.
# UniProt Q8WUM4: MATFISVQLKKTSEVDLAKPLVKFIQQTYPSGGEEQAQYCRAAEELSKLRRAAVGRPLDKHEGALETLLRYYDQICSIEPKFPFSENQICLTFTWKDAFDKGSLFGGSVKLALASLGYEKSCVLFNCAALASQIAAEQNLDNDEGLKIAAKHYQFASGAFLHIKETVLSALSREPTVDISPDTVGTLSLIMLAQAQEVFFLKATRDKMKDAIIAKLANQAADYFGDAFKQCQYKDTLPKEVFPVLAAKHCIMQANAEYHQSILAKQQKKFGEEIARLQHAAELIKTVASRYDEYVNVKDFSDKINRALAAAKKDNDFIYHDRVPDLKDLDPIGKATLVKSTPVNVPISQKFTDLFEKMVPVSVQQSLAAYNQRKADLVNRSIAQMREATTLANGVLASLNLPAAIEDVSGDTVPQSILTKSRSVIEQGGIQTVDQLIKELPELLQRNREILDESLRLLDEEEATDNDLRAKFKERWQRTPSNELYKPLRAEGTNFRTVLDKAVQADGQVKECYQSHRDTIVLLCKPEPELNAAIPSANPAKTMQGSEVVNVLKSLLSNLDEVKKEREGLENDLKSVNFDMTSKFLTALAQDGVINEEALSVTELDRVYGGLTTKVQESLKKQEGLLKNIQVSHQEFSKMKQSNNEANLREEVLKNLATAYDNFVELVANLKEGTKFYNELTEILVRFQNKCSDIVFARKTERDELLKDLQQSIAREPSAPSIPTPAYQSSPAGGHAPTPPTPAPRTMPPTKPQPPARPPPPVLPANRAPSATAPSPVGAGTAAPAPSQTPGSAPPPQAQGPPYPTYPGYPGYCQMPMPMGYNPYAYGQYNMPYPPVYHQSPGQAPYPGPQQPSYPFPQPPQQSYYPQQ
# UniProt Q8WW12: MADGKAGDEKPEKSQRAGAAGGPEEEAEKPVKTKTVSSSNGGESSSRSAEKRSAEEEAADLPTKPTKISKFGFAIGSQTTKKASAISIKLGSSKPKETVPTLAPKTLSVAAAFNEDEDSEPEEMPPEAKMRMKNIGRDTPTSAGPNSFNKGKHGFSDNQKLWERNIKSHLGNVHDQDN
# UniProt Q14554: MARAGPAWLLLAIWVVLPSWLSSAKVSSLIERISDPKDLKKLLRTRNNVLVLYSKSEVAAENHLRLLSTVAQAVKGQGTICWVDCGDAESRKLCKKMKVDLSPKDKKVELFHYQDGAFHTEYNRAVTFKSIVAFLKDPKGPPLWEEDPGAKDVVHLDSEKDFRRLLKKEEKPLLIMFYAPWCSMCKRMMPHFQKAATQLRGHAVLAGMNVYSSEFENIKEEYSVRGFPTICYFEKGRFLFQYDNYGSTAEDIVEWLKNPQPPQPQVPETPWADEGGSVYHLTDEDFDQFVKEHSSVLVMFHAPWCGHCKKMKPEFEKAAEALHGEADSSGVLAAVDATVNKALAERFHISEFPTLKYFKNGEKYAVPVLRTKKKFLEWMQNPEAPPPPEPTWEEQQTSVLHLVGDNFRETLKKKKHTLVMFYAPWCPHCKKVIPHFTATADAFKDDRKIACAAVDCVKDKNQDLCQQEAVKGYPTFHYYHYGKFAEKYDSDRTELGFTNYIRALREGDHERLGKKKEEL
# UniProt Q53EL6: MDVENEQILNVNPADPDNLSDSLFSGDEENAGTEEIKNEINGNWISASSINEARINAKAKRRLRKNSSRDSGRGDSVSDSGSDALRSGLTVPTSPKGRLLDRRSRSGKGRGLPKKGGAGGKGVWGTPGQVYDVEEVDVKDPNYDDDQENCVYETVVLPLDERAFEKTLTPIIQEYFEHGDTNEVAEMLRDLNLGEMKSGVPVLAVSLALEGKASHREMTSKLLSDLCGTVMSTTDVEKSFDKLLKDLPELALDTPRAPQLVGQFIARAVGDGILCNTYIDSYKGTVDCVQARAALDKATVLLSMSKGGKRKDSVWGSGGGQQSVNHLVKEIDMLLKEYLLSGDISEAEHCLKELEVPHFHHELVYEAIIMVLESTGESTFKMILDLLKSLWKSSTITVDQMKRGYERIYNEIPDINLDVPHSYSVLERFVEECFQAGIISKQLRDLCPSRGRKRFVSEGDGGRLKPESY
# UniProt Q9BRX2, whole entry, looked up: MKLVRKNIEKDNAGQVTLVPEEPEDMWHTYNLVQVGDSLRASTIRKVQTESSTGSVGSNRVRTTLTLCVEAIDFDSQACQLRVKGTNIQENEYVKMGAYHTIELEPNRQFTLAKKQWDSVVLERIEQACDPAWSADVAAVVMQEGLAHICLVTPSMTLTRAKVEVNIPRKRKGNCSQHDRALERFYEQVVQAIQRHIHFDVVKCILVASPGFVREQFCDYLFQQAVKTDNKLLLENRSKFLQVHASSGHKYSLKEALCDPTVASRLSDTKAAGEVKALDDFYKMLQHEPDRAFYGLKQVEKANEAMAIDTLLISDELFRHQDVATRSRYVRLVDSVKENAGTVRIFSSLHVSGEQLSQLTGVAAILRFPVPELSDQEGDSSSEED
# UniProt Q9UKL6: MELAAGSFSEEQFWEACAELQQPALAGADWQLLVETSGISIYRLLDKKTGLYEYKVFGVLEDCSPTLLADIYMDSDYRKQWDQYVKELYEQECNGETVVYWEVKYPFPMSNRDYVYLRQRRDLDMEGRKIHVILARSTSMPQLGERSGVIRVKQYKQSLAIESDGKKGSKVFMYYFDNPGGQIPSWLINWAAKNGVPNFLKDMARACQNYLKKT
# UniProt Q86W56: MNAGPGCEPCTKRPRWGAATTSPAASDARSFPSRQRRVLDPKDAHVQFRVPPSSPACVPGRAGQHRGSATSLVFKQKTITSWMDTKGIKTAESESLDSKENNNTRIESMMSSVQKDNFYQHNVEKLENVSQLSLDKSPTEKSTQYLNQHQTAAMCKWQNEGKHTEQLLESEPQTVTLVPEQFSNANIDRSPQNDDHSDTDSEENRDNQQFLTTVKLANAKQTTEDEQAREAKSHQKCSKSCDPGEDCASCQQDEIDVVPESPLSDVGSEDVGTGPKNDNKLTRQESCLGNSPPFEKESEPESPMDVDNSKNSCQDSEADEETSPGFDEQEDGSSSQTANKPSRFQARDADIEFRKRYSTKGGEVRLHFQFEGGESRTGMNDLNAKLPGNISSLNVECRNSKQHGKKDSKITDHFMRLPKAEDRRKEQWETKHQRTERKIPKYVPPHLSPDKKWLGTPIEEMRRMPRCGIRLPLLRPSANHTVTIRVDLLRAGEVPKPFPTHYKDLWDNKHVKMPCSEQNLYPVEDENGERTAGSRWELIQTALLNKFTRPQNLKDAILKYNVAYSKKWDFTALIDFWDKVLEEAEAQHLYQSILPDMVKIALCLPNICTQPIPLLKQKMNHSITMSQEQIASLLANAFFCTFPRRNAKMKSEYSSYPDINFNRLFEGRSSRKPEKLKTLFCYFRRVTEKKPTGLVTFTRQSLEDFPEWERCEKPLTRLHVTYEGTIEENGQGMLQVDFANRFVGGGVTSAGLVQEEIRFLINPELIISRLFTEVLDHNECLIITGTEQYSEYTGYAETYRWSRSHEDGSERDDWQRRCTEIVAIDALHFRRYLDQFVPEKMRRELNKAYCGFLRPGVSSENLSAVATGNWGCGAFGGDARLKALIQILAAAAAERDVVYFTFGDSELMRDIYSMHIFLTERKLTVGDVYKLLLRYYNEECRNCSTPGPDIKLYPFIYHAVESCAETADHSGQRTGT
# UniProt P50479: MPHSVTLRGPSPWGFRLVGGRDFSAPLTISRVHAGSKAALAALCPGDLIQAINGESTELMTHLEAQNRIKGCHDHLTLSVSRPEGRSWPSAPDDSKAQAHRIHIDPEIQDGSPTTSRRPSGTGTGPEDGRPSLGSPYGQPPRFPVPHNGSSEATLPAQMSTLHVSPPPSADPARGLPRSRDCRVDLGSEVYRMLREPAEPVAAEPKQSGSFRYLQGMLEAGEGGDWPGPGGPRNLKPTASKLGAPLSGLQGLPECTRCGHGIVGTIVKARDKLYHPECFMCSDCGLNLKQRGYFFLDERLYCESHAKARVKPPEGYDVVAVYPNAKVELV
# UniProt Q8NBP7, whole entry, looked up: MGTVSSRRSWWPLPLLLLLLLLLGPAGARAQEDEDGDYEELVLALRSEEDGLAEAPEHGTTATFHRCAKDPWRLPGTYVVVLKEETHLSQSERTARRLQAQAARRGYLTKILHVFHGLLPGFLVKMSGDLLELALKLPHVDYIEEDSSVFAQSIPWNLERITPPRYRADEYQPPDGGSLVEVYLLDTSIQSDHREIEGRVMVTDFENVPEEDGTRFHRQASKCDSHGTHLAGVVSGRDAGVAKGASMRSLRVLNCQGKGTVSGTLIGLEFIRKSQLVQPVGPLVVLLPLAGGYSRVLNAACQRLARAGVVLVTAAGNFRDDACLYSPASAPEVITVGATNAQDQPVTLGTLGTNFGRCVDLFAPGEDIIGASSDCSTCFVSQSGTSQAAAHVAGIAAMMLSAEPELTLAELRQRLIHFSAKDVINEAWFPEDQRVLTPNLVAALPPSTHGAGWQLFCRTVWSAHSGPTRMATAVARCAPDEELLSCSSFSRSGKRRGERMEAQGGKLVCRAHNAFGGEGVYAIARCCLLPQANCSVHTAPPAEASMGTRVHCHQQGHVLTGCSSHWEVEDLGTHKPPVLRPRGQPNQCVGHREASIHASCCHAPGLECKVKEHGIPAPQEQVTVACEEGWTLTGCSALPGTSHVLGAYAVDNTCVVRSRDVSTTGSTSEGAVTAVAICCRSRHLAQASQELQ
# UniProt P49585: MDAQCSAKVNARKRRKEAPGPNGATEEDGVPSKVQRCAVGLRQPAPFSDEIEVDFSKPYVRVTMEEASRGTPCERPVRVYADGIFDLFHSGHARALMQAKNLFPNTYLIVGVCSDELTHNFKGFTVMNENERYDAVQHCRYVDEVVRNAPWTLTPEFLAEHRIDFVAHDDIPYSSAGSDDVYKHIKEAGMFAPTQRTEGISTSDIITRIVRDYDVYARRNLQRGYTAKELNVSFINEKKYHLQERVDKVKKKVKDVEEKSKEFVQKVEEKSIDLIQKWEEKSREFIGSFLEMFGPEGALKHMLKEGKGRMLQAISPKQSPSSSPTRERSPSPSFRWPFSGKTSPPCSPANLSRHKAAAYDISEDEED
# UniProt P68402: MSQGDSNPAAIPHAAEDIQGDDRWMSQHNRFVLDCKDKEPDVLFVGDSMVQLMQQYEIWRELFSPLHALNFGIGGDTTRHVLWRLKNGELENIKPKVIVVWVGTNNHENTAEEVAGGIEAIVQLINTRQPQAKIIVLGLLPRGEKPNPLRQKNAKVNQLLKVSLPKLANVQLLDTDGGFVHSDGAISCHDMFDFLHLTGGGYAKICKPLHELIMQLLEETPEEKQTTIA
# UniProt Q15365, whole entry, looked up: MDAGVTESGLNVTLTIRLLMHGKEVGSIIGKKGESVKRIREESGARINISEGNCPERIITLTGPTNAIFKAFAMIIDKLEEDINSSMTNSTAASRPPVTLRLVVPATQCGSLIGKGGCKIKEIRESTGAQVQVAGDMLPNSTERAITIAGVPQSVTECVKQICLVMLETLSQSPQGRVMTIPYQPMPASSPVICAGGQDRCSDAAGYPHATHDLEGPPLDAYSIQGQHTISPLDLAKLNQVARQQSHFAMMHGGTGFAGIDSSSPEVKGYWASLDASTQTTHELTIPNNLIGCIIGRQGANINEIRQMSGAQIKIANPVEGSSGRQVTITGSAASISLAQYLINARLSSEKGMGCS
# UniProt O00408, whole entry, looked up: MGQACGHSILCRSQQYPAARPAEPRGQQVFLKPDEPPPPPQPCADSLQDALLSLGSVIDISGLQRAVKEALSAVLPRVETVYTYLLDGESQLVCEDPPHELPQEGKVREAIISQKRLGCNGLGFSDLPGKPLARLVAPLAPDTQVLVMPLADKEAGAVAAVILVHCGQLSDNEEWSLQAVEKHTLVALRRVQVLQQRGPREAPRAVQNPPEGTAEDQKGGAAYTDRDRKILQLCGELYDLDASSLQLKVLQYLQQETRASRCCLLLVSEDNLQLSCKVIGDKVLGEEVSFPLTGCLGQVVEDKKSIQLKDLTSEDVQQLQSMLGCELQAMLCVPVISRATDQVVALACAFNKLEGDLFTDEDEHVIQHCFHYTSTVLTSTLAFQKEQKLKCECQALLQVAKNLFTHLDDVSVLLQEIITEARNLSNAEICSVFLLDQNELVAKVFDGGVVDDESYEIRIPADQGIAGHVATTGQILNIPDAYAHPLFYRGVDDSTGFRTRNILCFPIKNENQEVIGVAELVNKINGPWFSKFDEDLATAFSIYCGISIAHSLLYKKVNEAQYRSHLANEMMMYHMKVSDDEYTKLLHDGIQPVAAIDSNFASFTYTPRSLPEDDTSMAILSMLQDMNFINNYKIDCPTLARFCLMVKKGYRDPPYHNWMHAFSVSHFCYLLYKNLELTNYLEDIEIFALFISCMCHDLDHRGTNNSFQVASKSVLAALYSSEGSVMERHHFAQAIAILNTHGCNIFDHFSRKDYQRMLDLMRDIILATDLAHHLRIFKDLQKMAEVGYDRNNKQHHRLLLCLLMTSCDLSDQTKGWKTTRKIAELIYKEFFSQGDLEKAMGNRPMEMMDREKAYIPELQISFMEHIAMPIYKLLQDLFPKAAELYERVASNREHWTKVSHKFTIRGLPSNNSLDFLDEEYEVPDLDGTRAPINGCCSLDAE
# Some of the results follow.
# Experiments:
# Test in all cases: log2 fold change, soluble protein after heating vs DMSO (PISA); higher = thermal stabilisation; K562 cells, 10 uM, 30 min; active = over 0.2 and 3.5 SD of the protein, either way, in both replicates (recomputed)
# [1] = compound: CC[C@@H]1C(=O)N(C)c2cnc(Nc3ccc(C(=O)NC4CCN(C)CC4)cc3OC)nc2N1C1CCCC1
# In short: (§1)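 Quantification of soluble protein used TMTpro 16plex LC-MS/MS, with channel sums equalised. Samples were the supernatant after 21,000xg for 90 min of pooled aliquots from K562 cells (2×10^6 cells/mL) treated with 10 μM compound for 30 min, heated for 3 min over 48°C-58°C, and extracted in PBS with 0.5% NP-40 at 4°C. Values, from duplicates, describe thermal stability against control samples on a log2 fold-change scale.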
# [2] = compound: CC[C@@H]1C(=O)N(C)c2cnc(Nc3ccc(C(=O)N[C@H]4CC[C@H](N5CCN(CC6CC6)CC5)CC4)cc3OC)nc2N1C(C)C [volasertib]
# In short: as §1
# [3] = compound: CC[C@H](C)N1C=C(C2=C(C=C(C=C21)C3=CN=C(C=C3)N4CCNCC4)C(=O)NCC5=C(C=C(NC5=O)C)C)C
# In short: as §1
# [4] = compound: CC[C@H](C)[C@@H](C(=O)N[C@@H]([C@@H](C)O)C(=O)N[C@@H](CC(C)C)C(=O)[C@]1(CO1)C)NC(=O)[C@H]([C@@H](C)CC)N(C)C(=O)C [epoxomicin]
# In short: as §1
# [5] = compound: CCn1cc(-c2ccnc3[nH]c(-c4cccc(CN(C)C)c4)cc23)c(-c2ccc(NC(=O)N(C)C)cc2)n1
# In short: as §1
# [6] = compound: CN(C)CC(=O)Nc1ccc2[nH]c(=O)c3ccccc3c2c1
# In short: as §1
# [7] = compound: CN1C2=C(C3=C1C(=O)N(N=C3)CC4=CC(=CC=C4)N)SC(=C2)S(=O)C
# In short: as §1
# [8] = compound: CN1CCC(CNc2ccc3ncc(-c4cccc(OC(F)(F)F)c4)n3n2)CC1
# In short: as §1
# [9] = compound: CN1CCN(CCOc2cc(OC3CCOCC3)c3c(Nc4c(Cl)ccc5c4OCO5)ncnc3c2)CC1 [saracatinib]
# In short: as §1
# [10] = compound: CN1CCN(c2nc(C3=C(c4c[nH]c5ccccc45)C(=O)NC3=O)c3ccccc3n2)CC1 [sotrastaurin]
# In short: as §1
# [11] = compound: CN1CCc2c(c3ccccc3n2Cc2ccc(C(=O)NO)cc2)C1 [Tubastatin A]
# In short: as §1
# [12] = compound: CNC(=O)C1=CC=CC=C1NC2=NC(=NC=C2Cl)NC3=C(C=C(C=C3)N4CCOCC4)OC
# In short: as §1
# [13] = compound: CNC(=O)c1ccc(Nc2ncc(C(F)(F)F)c(NCc3nccnc3N(C)S(C)(=O)=O)n2)cc1 [defactinib]
# In short: as §1
# [14] = compound: CNCc1ccc(-c2[nH]c3cc(F)cc4c3c2CCNC4=O)cc1 [rucaparib]
# In short: as §1
# [15] = compound: CNc1nc(-c2ccc3c(N)n[nH]c3c2)cc(N2C[C@@H](C(=O)NC3CCCCC3)CC[C@H]2C)n1
# In short: as §1
# [16] = compound: COC(=O)N[C@@H](C)CNc1nccc(-c2cn(C(C)C)nc2-c2cc(Cl)cc(NS(C)(=O)=O)c2F)n1 [encorafenib]
# In short: as §1
# [17] = compound: COC(=O)[C@H](CCSC)NC(=O)C1=C(C=C(C=C1)NC[C@H](CS)N)C2=CC=CC=C2
# In short: as §1
# [18] = compound: CCn1c(C(=O)N(C2CC2)C2CC2)cc2c3c(ncn3C)c(Nc3cc(C)n(C)n3)nc21
# In short: as §1
# [19] = compound: CN(CCOC1=CC=C(C=C1)C[C@H]2C(=O)NC(=O)S2)C3=CC=CC=N3 (racemic) [rosiglitazone]
# In short: as §1
# [20] = compound: CN1CC[C@H](c2c(O)cc(O)c3c(=O)cc(-c4ccccc4Cl)oc23)[C@H](O)C1 [alvocidib]
# In short: as §1
Target,log2 fold change [1],log2 fold change [2],log2 fold change [3],log2 fold change [4],log2 fold change [5],log2 fold change [6],log2 fold change [7],log2 fold change [8],log2 fold change [9],log2 fold change [10],log2 fold change [11],log2 fold change [12],log2 fold change [13],log2 fold change [14],log2 fold change [15],log2 fold change [16],log2 fold change [17],log2 fold change [18],log2 fold change [19],log2 fold change [20]
PDCD6IP (UniProt Q8WUM4),inactive: -0.219,active: -0.694,inactive: 0.166,inactive: 0.082,inactive: -0.06,inactive: 0.116,inactive: 0.043,inactive: -0.256,inactive: -0.11,inactive: -0.227,inactive: 0.048,inactive: 0.034,inactive: -0.141,inactive: 0.119,inactive: 0.055,inactive: 0.138,inactive: -0.048,,,
PCNP (UniProt Q8WW12),inactive: 0.028,inactive: 0.094,inactive: -0.024,inactive: 0.002,inactive: 0.029,inactive: -0.055,inactive: -0.014,inactive: -0.007,inactive: 0.026,inactive: 0.006,inactive: -0.019,inactive: -0.022,inactive: 0.029,inactive: -0.025,inactive: -0.018,inactive: -0.018,inactive: -0.005,inactive: 0.03,inactive: -0.009,inactive: 0.037
PDSS2 (UniProt Q86YH6),inactive: 0.021,inactive: 0.016,inactive: 0.12,inactive: 0.024,inactive: -0.069,inactive: 0.05,inactive: 0.02,inactive: 0.018,inactive: 0.159,inactive: 0.218,inactive: -0.013,inactive: -0.019,inactive: -0.076,inactive: 0.07,inactive: -0.025,inactive: -0.154,inactive: -0.042,,,
PDIA5 (UniProt Q14554),inactive: 0.022,inactive: 0.007,inactive: 0.01,inactive: 0.017,inactive: 0.017,inactive: -0.042,inactive: 0.065,inactive: 0.1,inactive: -0.04,inactive: -0.029,inactive: 0.022,inactive: -0.016,inactive: 0.056,inactive: 0.03,inactive: 0.008,inactive: 0.072,inactive: -0.019,inactive: 0.005,inactive: -0.035,inactive: 0.039
PDCD4 (UniProt Q53EL6),inactive: -0.26,active: -0.585,inactive: -0.013,inactive: 0.055,inactive: -0.053,inactive: 0.065,inactive: -0.107,inactive: 0.011,inactive: -0.008,inactive: 0.138,inactive: 0,inactive: 0.177,inactive: -0.243,inactive: -0.113,inactive: 0.114,inactive: 0.073,inactive: -0.097,,,
PELO (UniProt Q9BRX2),inactive: -0.017,inactive: -0.387,inactive: 0.09,inactive: -0.058,inactive: 0.007,inactive: -0.017,inactive: 0.138,inactive: -0.312,inactive: -0.079,inactive: -0.218,inactive: 0.121,inactive: -0.122,inactive: -0.058,inactive: 0.299,inactive: 0.148,inactive: 0.137,inactive: 0.061,,,
PCTP (UniProt Q9UKL6),inactive: -0.017,inactive: -0.012,inactive: -0.067,inactive: 0.039,inactive: -0.055,inactive: -0.005,inactive: -0.011,active: -0.279,inactive: 0.083,inactive: -0.016,inactive: -0.002,inactive: 0,inactive: -0.037,inactive: -0.056,inactive: 0.039,inactive: -0.032,inactive: 0.094,,,
PARN (UniProt O95453),inactive: -0.146,active: -0.401,inactive: 0.059,inactive: 0.051,inactive: -0.076,inactive: 0.017,inactive: -0.057,inactive: -0.196,inactive: -0.013,inactive: -0.008,inactive: -0.017,inactive: 0.02,inactive: -0.141,inactive: 0.079,inactive: -0.022,inactive: 0.04,inactive: 0.014,,,
PARG (UniProt Q86W56),inactive: 0.036,inactive: -0.025,inactive: 0.059,inactive: 0.004,inactive: -0.016,inactive: 0.09,inactive: 0.005,inactive: -0.126,inactive: 0.003,inactive: -0.102,inactive: 0.051,inactive: -0.113,inactive: -0.068,inactive: 0.044,inactive: 0.115,inactive: 0.034,inactive: -0.025,,,
PDLIM4 (UniProt P50479),inactive: -0.019,inactive: -0.027,inactive: -0.007,inactive: 0.038,inactive: 0.007,inactive: -0.007,inactive: -0.034,inactive: -0.026,inactive: 0.006,inactive: 0.011,inactive: 0.03,inactive: -0.019,inactive: -0.025,inactive: -0.028,inactive: -0.041,inactive: -0.007,inactive: 0.025,inactive: -0.053,inactive: 0.022,inactive: 0.039
PCSK9 (UniProt Q8NBP7),inactive: -0.049,inactive: -0.117,inactive: 0.015,inactive: -0.054,inactive: 0.079,inactive: 0.03,,inactive: 0.097,,inactive: -0.033,inactive: 0.113,inactive: 0.023,inactive: 0.007,inactive: -0.035,,inactive: 0.09,inactive: 0.039,inactive: -0.008,inactive: -0.004,inactive: 0.141
PELP1 (UniProt Q8IZL8),inactive: 0.056,inactive: 0.017,inactive: -0.002,inactive: -0.004,inactive: 0.047,inactive: -0.009,inactive: 0.006,inactive: 0.021,inactive: -0.002,inactive: -0.007,inactive: -0.021,inactive: -0.027,inactive: -0.082,inactive: -0.054,inactive: -0.069,inactive: -0.012,inactive: 0.004,,,
PCBP2 isoform 3 (UniProt Q15366),inactive: -0.069,active: -0.263,inactive: 0.071,inactive: 0.013,inactive: -0.003,inactive: 0.043,inactive: -0.001,inactive: -0.081,inactive: -0.023,inactive: -0.084,inactive: 0.025,inactive: -0.032,inactive: -0.187,inactive: 0.041,inactive: 0.013,inactive: 0.075,inactive: -0.058,,,
PCYT1A (UniProt P49585),inactive: -0.219,active: -0.332,inactive: 0.042,inactive: 0.028,inactive: -0.019,inactive: 0.017,inactive: -0.022,inactive: -0.111,inactive: -0.014,inactive: -0.105,inactive: 0.013,inactive: 0.032,inactive: -0.186,inactive: -0.127,inactive: -0.097,inactive: -0.001,inactive: -0.02,,,
PAFAH1B2 (UniProt P68402),inactive: 0.002,inactive: 0.064,inactive: 0.036,inactive: 0.102,inactive: -0.087,inactive: -0.009,inactive: -0.037,inactive: -0.016,inactive: -0.016,inactive: 0.097,inactive: -0.058,inactive: -0.029,inactive: 0.022,inactive: 0.037,inactive: 0.078,inactive: -0.006,inactive: -0.026,,,
PCGF2 (UniProt P35227),inactive: -0.131,inactive: -0.089,inactive: 0.012,inactive: -0.005,inactive: -0.02,inactive: -0.03,inactive: -0.071,active: -0.282,inactive: -0.029,inactive: 0.04,inactive: 0.039,inactive: -0.057,inactive: -0.129,inactive: 0.024,inactive: 0.122,inactive: 0.071,inactive: 0.027,,,
PCBP1 (UniProt Q15365),inactive: -0.1,active: -0.268,inactive: 0.04,inactive: 0.025,inactive: 0.025,inactive: 0.039,inactive: 0.009,inactive: -0.129,inactive: 0.009,inactive: -0.073,inactive: 0.013,inactive: -0.015,inactive: -0.151,inactive: -0.015,inactive: 0.03,inactive: 0.052,inactive: -0.034,,,
PDE2A (UniProt O00408),inactive: -0.031,inactive: -0.107,inactive: 0.016,inactive: -0.087,inactive: -0.082,inactive: 0.027,inactive: 0,inactive: -0.091,inactive: -0.011,inactive: -0.005,inactive: 0.208,inactive: 0.01,inactive: -0.094,inactive: -0.051,inactive: -0.065,inactive: -0.064,inactive: -0.042,,,

# Quoted at random: two entries already listed.
Target,log2 fold change [1],log2 fold change [2],log2 fold change [3],log2 fold change [4],log2 fold change [5],log2 fold change [6],log2 fold change [7],log2 fold change [8],log2 fold change [9],log2 fold change [10],log2 fold change [11],log2 fold change [12],log2 fold change [13],log2 fold change [14],log2 fold change [15],log2 fold change [16],log2 fold change [17],log2 fold change [18],log2 fold change [19],log2 fold change [20]
PARG (UniProt Q86W56),inactive: 0.036,inactive: -0.025,inactive: 0.059,inactive: 0.004,inactive: -0.016,inactive: 0.09,inactive: 0.005,inactive: -0.126,inactive: 0.003,inactive: -0.102,inactive: 0.051,inactive: -0.113,inactive: -0.068,inactive: 0.044,inactive: 0.115,inactive: 0.034,inactive: -0.025,,,
PDIA5 (UniProt Q14554),inactive: 0.022,inactive: 0.007,inactive: 0.01,inactive: 0.017,inactive: 0.017,inactive: -0.042,inactive: 0.065,inactive: 0.1,inactive: -0.04,inactive: -0.029,inactive: 0.022,inactive: -0.016,inactive: 0.056,inactive: 0.03,inactive: 0.008,inactive: 0.072,inactive: -0.019,inactive: 0.005,inactive: -0.035,inactive: 0.039
